# Results are given in words; binding and its absence hold for the method and conditions named. Some binding calls cover weakened binding; strength is not graded here.
# Tests used:
# [1] = target: Epidermal growth factor receptor (EGFR), human, on cells (human) (UniProt P00533); assay: competition with QRH*-Cy5.5 on HT29 cells, fluorescence microscopy
# [2] = target: Epidermal growth factor receptor (EGFR), human, on cells (human) (UniProt P00533); assay: competition: unlabeled QRH* at 0-500 µM, then 5 µM QRH*-Cy5.5, HT29 cells, fluorescence microscopy
binder,measurement,setting,value
QRHKPREGGGSK [unlabeled QRH* peptide],binding,[1],binds
same,binding,[2],binds
